Binding data for one molecule are collected here from publication PMC7335806.

By UniProt entry, the sequences of proteins in these tests, tags left out. Where a name states a change or a piece, a line headed by the entry shows the natural chain unless it says otherwise. Chains listed by the source or under a name are the forms on record and can include a tag or linker.
GST-tagged human Sar1A (H79G) (Q9NR31, form named): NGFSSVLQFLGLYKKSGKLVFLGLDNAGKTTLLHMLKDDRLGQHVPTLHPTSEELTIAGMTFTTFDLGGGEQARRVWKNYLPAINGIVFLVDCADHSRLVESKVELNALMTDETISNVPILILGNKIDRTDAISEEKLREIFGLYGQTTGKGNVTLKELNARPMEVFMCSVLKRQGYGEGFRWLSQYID

For the assay, the target named is GST-tagged human Sar1A (H79G) (human) (UniProt Q9NR31). Put plainly: pull-down; around 5 μg GST-Sar1A (H79G) on 10 μl GSH beads, loaded with GTPγS; incubated with 200 μl of 0.5 mg/ml HEK293T cell lysate in HKT buffer (100 mM KCl, 20 mM Hepes pH 7.2, 0.5% Triton X-100), 4 °C overnight; immunoblotting; only the target purified.

These are yes or no findings as the source states them, for the method shown. In cells and extracts the contact can be indirect. Some binding calls cover weakened binding; strength is not graded here. Tags and fused reporters may be left off the sequences shown.

B1: Wild-type HA-tagged mouse Fzd6 (receptor, UniProt Q61089 19-709)
chain: HSLFTCEPITVPRCMKMTYNMTFFPNLMGHYDQGIAAVEMGHFLHLANLECSPNIEMFLCQAFIPTCTEQIHVVLPCRKLCEKIVSDCKKLMDTFGIRWPEELECNRLPHCDDTVPVTSHPHTELSGPQKKSDQVPRDIGFWCPKHLRTSGDQGYRFLGIEQCAPPCPNMYFKSDELDFAKSFIGIVSIFCLCATLFTFLTFLIDVRRFRYPERPIIYYSVCYSIVSLMYFVGFLLGNSTACNKADEKLELGDTVVLGSKNKACSVVFMFLYFFTMAGTVWWVILTITWFLAAGRKWSCEAIEQKAVWFHAVAWGAPGFLTVMLLAMNKVEGDNISGVCFVGLYDLDASRYFVLLPLCLCVFVGLSLLLAGIISLNHVRQVIQHDGRNQEKLKKFMIRIGVFSGLYLVPLVTLLGCYVYELVNRITWEMTWFSDHCHQYRIPCPYQANPKARPELALFMIKYLMTLIVGISAVFWVGSKKTCTEWAGFFKRNRKRDPISESRRVLQESCEFFLKHNSKVKHKKKHGAPGPHRLKVISKSMGTSTGATTNHGTSAMAIADHDYLGQETSTEVHTSPEASVKEGRADRANTPSAKDRDCGESAGPSSKLSGNRNGRESRAGGLKERSNGSEGAPSEGRVSPKSSVPETGLIDCSTSQAASSPEPTSLKGSTSLPVHSASRARKEQGAGSHSDA
For B1, the binding entry is “binds”.
